In the supplement of paper PMC6078165:

System: BT20
Experiment: relative JC-1 red fluorescence (viability) vs pre-drug, coculture with fibroblast (fraction); higher = more viable cancer cells
Experimental: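 JC-1 labelled TNBC cells cocultured 1:1 (1,500 cells each) with CellTrace Violet stained primary or stromal fibroblasts in 384-well plates in FluoroBrite medium, treated with one of 42 anticancer drugs at 0.1, 1, 10 or 100 uM. JC-1 red fluorescence (mitochondrial integrity in cancer cells only) was read by plate reader every 8 h for 72 h. Values are normalised to each well's pre-drug value. The stock of one drug was tenfold lower, so its dose labels may be too high.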

CC(C)C[C@H](NC(=O)[C@H](Cc1ccccc1)NC(=O)c1cnccn1)B(O)O [Bortezomib]
relative JC-1 red fluorescence
Details | 8 h | 16 h | 24 h | 32 h | 40 h | 48 h | 56 h | 64 h | 72 h
10 µM, coculture fibroblast: C12385 | 0.8691 | 0.808 | 0.738 | 0.623 | 0.521 | 0.481 | 0.465 | 0.449 | 0.441
10 µM, coculture fibroblast: H6013 | 0.9074 | 0.768 | 0.701 | 0.589 | 0.559 | 0.548 | 0.578 | 0.574 | 0.577
10 µM, coculture fibroblast: H6019 | 0.8749 | 0.77717 | 0.704 | 0.592 | 0.516 | 0.501 | 0.492 | 0.5 | 0.504
10 µM, coculture fibroblast: H6076 | 0.987 | 0.829 | 0.692 | 0.65 | 0.653 | 0.653 | 0.669 | 0.67 | 0.668
10 µM, coculture fibroblast: H6231 | 0.859 | 0.8381 | 0.679 | 0.577 | 0.538 | 0.51 | 0.49 | 0.479 | 0.464
10 µM, coculture fibroblast: HADF | 0.962 | 0.889 | 0.792 | 0.627 | 0.546 | 0.489 | 0.487 | 0.474 | 0.448
10 µM, coculture fibroblast: HCFa | 0.946 | 0.902 | 0.891 | 0.759 | 0.675 | 0.631 | 0.645 | 0.639 | 0.62
10 µM, coculture fibroblast: HCPF | 0.954 | 0.842 | 0.754 | 0.71 | 0.718 | 0.68 | 0.649 | 0.646 | 0.612
10 µM, coculture fibroblast: HHSteC | 0.8923 | 0.845 | 0.815 | 0.635 | 0.543 | 0.497 | 0.496 | 0.48 | 0.463
10 µM, coculture fibroblast: HMF | 0.809 | 0.805 | 0.633 | 0.525 | 0.464 | 0.43 | 0.445 | 0.428 | 0.416
10 µM, coculture fibroblast: HPFa | 0.916 | 0.764 | 0.87 | 0.679 | 0.596 | 0.546 | 0.54 | 0.524 | 0.503
10 µM, coculture fibroblast: HUF | 0.865 | 0.762 | 0.694 | 0.543 | 0.452 | 0.411 | 0.4 | 0.395 | 0.384
10 µM, coculture fibroblast: Hs5 | 0.899 | 0.856 | 0.6747 | 0.574 | 0.521 | 0.487 | 0.486 | 0.464 | 0.464
10 µM, coculture fibroblast: Hs27A | 0.83 | 0.885 | 0.8806 | 0.724 | 0.645 | 0.612 | 0.608 | 0.596 | 0.561
10 µM, coculture fibroblast: Hs343T | 0.914 | 0.851 | 0.657 | 0.512 | 0.404 | 0.362 | 0.346 | 0.345 | 0.325
10 µM, coculture fibroblast: WS1 | 0.826 | 0.718 | 0.64 | 0.546 | 0.461 | 0.419 | 0.406 | 0.393 | 0.384
100 µM, coculture fibroblast: C12385 | 0.897 | 0.83 | 0.705 | 0.569 | 0.541 | 0.497 | 0.4447 | 0.422 | 0.4077
100 µM, coculture fibroblast: H6013 | 0.835 | 0.855 | 0.758 | 0.641 | 0.587 | 0.57 | 0.59 | 0.577 | 0.567
100 µM, coculture fibroblast: H6019 | 0.858 | 0.763 | 0.715 | 0.651 | 0.6309 | 0.6222 | 0.613 | 0.617 | 0.619
100 µM, coculture fibroblast: H6076 | 0.884 | 0.831 | 0.64 | 0.543 | 0.495 | 0.485 | 0.484 | 0.487 | 0.479
100 µM, coculture fibroblast: H6231 | 0.797 | 0.938 | 0.765 | 0.681 | 0.695 | 0.661 | 0.639 | 0.611 | 0.578
100 µM, coculture fibroblast: HADF | 0.873 | 0.838 | 0.898 | 0.746 | 0.664 | 0.6279 | 0.611 | 0.588 | 0.552
100 µM, coculture fibroblast: HCFa | 0.835 | 0.841 | 0.736 | 0.749 | 0.664 | 0.608 | 0.589 | 0.573 | 0.546
100 µM, coculture fibroblast: HCPF | 0.806 | 0.932 | 0.735 | 0.6063 | 0.546 | 0.478 | 0.452 | 0.438 | 0.396
100 µM, coculture fibroblast: HHSteC | 0.901 | 0.828 | 0.858 | 0.716 | 0.685 | 0.6494 | 0.6321 | 0.6061 | 0.5775
100 µM, coculture fibroblast: HMF | 0.9739 | 0.823 | 0.652 | 0.557 | 0.501 | 0.454 | 0.442 | 0.43 | 0.409
100 µM, coculture fibroblast: HPFa | 0.959 | 0.867 | 0.822 | 0.697 | 0.666 | 0.619 | 0.614 | 0.597 | 0.562
100 µM, coculture fibroblast: HUF | 0.908 | 0.832 | 0.738 | 0.571 | 0.49 | 0.451 | 0.436 | 0.424 | 0.413
100 µM, coculture fibroblast: Hs5 | 0.825 | 0.86 | 0.697 | 0.61 | 0.561 | 0.527 | 0.507 | 0.489 | 0.473
100 µM, coculture fibroblast: Hs27A | 0.865 | 0.825 | 0.897 | 0.842 | 0.883 | 0.836 | 0.834 | 0.811 | 0.773
100 µM, coculture fibroblast: Hs343T | 0.857 | 0.83573 | 0.676 | 0.575 | 0.515 | 0.481 | 0.446 | 0.446 | 0.424
100 µM, coculture fibroblast: WS1 | 0.8831 | 0.768 | 0.67 | 0.535 | 0.475 | 0.463 | 0.428 | 0.405 | 0.394

Values are relative to the signal before dosing, not to a vehicle control; the signal also falls without drug.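 Fibroblast labels denote human fibroblasts, mainly primary ones from uterus (C12385, HUF), lung (H6013), bone (Hs27A), adrenal (HADF) and skin (WS1), plus mammary HMF and breast cancer-associated Hs343T. Cancer cells are basal-like or mesenchymal-like triple-negative breast cancer lines. A hit is a response shift exceeding 3x replicate standard deviation. The tissue of the other fibroblasts is not given here.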
